PubChem BioAssay AID504786 | Drosophila RNAi Screening Center – 2011

- Screen: 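Knock-downs reducing HIF reporter induction by the iron chelator DFO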 (primary screen)
- Cells: Drosophila S2 cells with a stable HIF luciferase reporter
- Knock-down reagent: long dsRNA against Drosophila genes, about 0.2 µg dsRNA per well of a 384-well plate
- Duration: three days of knock-down, then 20 h of DFO before reading
- Treatment: desferrioxamine (DFO) at 100 µM, an iron chelator that mimics hypoxia, for 20 h
- Detection: 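HIF reporter luminescence in cells given 100 µM DFO for 20 h, using the mouse ldh-a hypoxia-response element, scored as per-plate z-scores; higher means greater loss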
- Scale: z-score: higher = stronger loss of HIF reporter signal
The screen tested about 21,000 reagents; this is a random part of those with a known target gene and a result. 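Primary screen; positive scores mean lost reporter signal, so the sign may be inverted from the usual convention.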 The numbers tell different reagents against one gene apart. A plus sign joins genes that one reagent is predicted to hit. Further read-outs or replicates are left out here.

The opening 6 entries as a preview:
CG32576 + UQCR-14
- z-score, replicate 1: 0.8

CG13003
- z-score, replicate 1: -0.4

cpo
- z-score, replicate 1: -0.5

Jon66Ci
- z-score, replicate 1: -0.2

CG11560
- z-score, replicate 1: -0.4

Ir40a #1
- z-score, replicate 1: -0.1

The list itself, repeating the preview:
CG32576 + UQCR-14
- z-score, replicate 1: 0.8

CG13003
- z-score, replicate 1: -0.4

cpo
- z-score, replicate 1: -0.5

Jon66Ci
- z-score, replicate 1: -0.2

CG11560
- z-score, replicate 1: -0.4

Ir40a #1
- z-score, replicate 1: -0.1

Ir40a #2
- z-score, replicate 1: -0.2

kri
- z-score, replicate 1: -0.2

CG16879 (retired record)
- z-score, replicate 1: -0.3

CG10209
- z-score, replicate 1: -0.4

CG42322 #1
- z-score, replicate 1: -0.2

CG42322 #2
- z-score, replicate 1: -0.4

CG42322 #3
- z-score, replicate 1: 0.2

TTLL4A
- z-score, replicate 1: -0.4

Cals
- z-score, replicate 1: -0.3

eff
- z-score, replicate 1: 2.2

CG13983
- z-score, replicate 1: -0.4

CG13713
- z-score, replicate 1: -0.4

CG17140 + CG17139 #1
- z-score, replicate 1: -0.1

CG17140 + CG17139 #2
- z-score, replicate 1: -0.2

CG34323
- z-score, replicate 1: -0.1

l(2)k10201 #1
- z-score, replicate 1: -0.3

l(2)k10201 #2
- z-score, replicate 1: -0.2

PpY-55A
- z-score, replicate 1: 0.1

CG17024 (retired record)
- z-score, replicate 1: -0.2

Gr93c
- z-score, replicate 1: 0.7

FeCH
- z-score, replicate 1: 0.1

CG7706
- z-score, replicate 1: -0.2

put
- z-score, replicate 1: -0.2

aop
- z-score, replicate 1: 0.9

CAH8
- z-score, replicate 1: -0.6

CG8067
- z-score, replicate 1: -0.3

Pfdn2
- z-score, replicate 1: -0.2

CG30423
- z-score, replicate 1: 0

CG9919
- z-score, replicate 1: -0.2

PpD6
- z-score, replicate 1: 0.1

Noc3
- z-score, replicate 1: -0.3

CG30283
- z-score, replicate 1: -0.3

bcd
- z-score, replicate 1: -0.4

gus #1
- z-score, replicate 1: -0.2

gus #2
- z-score, replicate 1: 0

CG6610
- z-score, replicate 1: -0.2

erm
- z-score, replicate 1: -0.2

CG34423 + Mthfs
- z-score, replicate 1: -0.3

Vti1b #1
- z-score, replicate 1: -0.2

Vti1b #2
- z-score, replicate 1: -0.4

Vps45
- z-score, replicate 1: -0.4

CG18609
- z-score, replicate 1: -0.2

FucT6
- z-score, replicate 1: -0.4

CG14237
- z-score, replicate 1: 0.3

kek4
- z-score, replicate 1: -0.2
